Data: PubChem BioAssay AID248 (DTP/NCI, 2004)
The list is a part of this screen's results and no random one: it is rich in T/C values a quarter to a half above the control, in often repeated tests (any T/C) and in doses without a T/C. Further doses and runs are listed elsewhere. T/C gives the treated animals as a percentage of the vehicle group. Some entries give survivors of the animals treated and no T/C: the source holds a T/C of zero for them, seemingly a mark for toxic or unscored doses. Some survivor counts are full or nearly so, which does not show that the dose was tolerated: survival well below the control is almost never listed, so the zero probably covers shortened survival too. Counts of survivors are from the toxicity check (mostly the fifth day) where no day follows; animals may have died later. Schedules are NCI's codes, read here as Q, the interval in days (D) or hours (H), X, the number of doses. For survival time, the PubChem record calls one and a half times the control and up active, and a quarter to a half above the control has no call in these data; cut-offs in other NCI protocols can differ. Some schedule codes hold Z or #, which are not explained here. Some T/C values are followed by the survivors on the day toxicity was checked, most often the fifth; where none is given, no animal had died by that day.

System: L1210 leukemia ip in BDF1 mice, survival T/C
Assay: NCI In Vivo Anticancer Drug Screen. Data for tumor model L1210 Leukemia (intraperitoneal) in B6D2F1 (BDF1) mice
Settings: T/C endpoint: mean survival time, higher T/C = longer survival
[1] = dose: 40.0 mg/kg/injection, schedule: Q01DX001 (ip), vehicle: saline
[2] = dose: 80.0 mg/kg/injection, schedule: Q01DX001 (ip), vehicle: saline
[3] = dose: 100.0 mg/kg/injection, schedule: Q01DX001 (ip), vehicle: saline
[4] = dose: 200.0 mg/kg/injection, schedule: Q01DX001 (ip), vehicle: saline
[5] = dose: 400.0 mg/kg/injection, schedule: Q01DX001 (ip), vehicle: saline
[6] = dose: 200.0 mg/kg/injection, schedule: Q04DX003 (ip), vehicle: saline with Tween-80
[7] = dose: 400.0 mg/kg/injection, schedule: Q04DX003 (ip), vehicle: saline with Tween-80
[8] = dose: 50.0 mg/kg/injection, schedule: Q04DX002 (ip), vehicle: saline
[9] = dose: 100.0 mg/kg/injection, schedule: Q04DX002 (ip), vehicle: saline
[10] = dose: 200.0 mg/kg/injection, schedule: Q01DX009 (ip), vehicle: Klucel (hydroxypropylcellulose) (HPC)
[11] = dose: 400.0 mg/kg/injection, schedule: Q01DX001 (ip), vehicle: carboxymethylcellulose (CMC)
[12] = dose: 200.0 mg/kg/injection, schedule: Q01DX009 (ip), vehicle: saline with Tween-80
[13] = dose: 400.0 mg/kg/injection, schedule: Q01DX009 (ip), vehicle: saline with Tween-80

For Cc1ccc[n+]2c1ccc1c3ccccc3ccc12, the survivor count (dose: 20.0 mg/kg/injection, schedule: Q01DX001 (ip), vehicle: saline) was 3 of 6, the survivor count [1] was 1 of 6 and the survivor count [2] was 0 of 6. The survivor count [3] was 0 of 4, the survivor count [4] was 0 of 4 and the survivor count [5] was 0 of 4.

For CC1(C)CCC(CC(=O)O)(CC(=O)O)CC1, the survivor count [6] was 6 of 6.

In the case of Nc1nc2c(ncn2-c2cccc(Cl)c2)c(=O)[nH]1, the survivor count [7] is reported as 6 of 6.

O=C(O)C(F)(F)F.[Cu+2] was tested, and the survivor count [8] was 1 of 3, the survivor count [9] was 0 of 3 and the survivor count (dose: 200.0 mg/kg/injection, schedule: Q04DX002 (ip), vehicle: saline) was 0 of 3. The survivor count (dose: 400.0 mg/kg/injection, schedule: Q04DX002 (ip), vehicle: saline) was 0 of 3.

CCOC(=O)CSc1ccc2ccccc2[n+]1-c1ccccc1 was tested, and the survivor count [5] was 1 of 6.

CCn1nnc2c(N(C)C)nc(N)nc21 was tested, and the survivor count [10] was 2 of 6 and the survivor count (dose: 400.0 mg/kg/injection, schedule: Q04DX003 (ip), vehicle: Klucel (hydroxypropylcellulose) (HPC)) was 1 of 6.

For Cc1ccccc1N=NN(C)C, the survivor count [11] was 1 of 4.

For COC(=O)c1n[nH]c(C(C)C)c1N=NN(C)C, the T/C (dose: 100.0 mg/kg/injection, schedule: Q01DX009 (ip), vehicle: saline with Tween-80) was 137 % of control, the survivor count [12] was 6 of 6 and the T/C [6] was 129 % of control.

In the case of NC(Cc1c[nH]c2c(N(CCCl)CCCl)cccc12)C(=O)O (centres undefined), the T/C (dose: 10.0 mg/kg/injection, schedule: Q01DX Z (ip), vehicle: methylcellulose (MC)) is reported as 140 % of control and the T/C (dose: 20.0 mg/kg/injection, schedule: Q01DX Z (ip), vehicle: methylcellulose (MC)) is reported as 129 % of control.

For O=C(O)c1ccccc1NC(=S)c1ccccc1, the survivor count (dose: 200.0 mg/kg/injection, schedule: Q04DX002 (ip), vehicle: other) was 3 of 3 and the survivor count (dose: 400.0 mg/kg/injection, schedule: Q04DX002 (ip), vehicle: other) was 0 of 3.

For COc1ccc(OC)c(NC(=O)Nc2ccc(F)cc2)c1, the survivor count (dose: 50.0 mg/kg/injection, schedule: Q04DX002 (ip), vehicle: carboxymethylcellulose (CMC)) was 3 of 3.

With COc1ccc(N=NN(C)C(=O)c2ccccc2)cc1 the T/C [10] was 132 % of control.

O=C(O)C1Cc2c([nH]c3ccccc23)C(CCCCO)N1 (centres undefined) was tested, and the survivor count (dose: 200.0 mg/kg/injection, schedule: Q01DX001 (ip), vehicle: carboxymethylcellulose (CMC)) was 2 of 4 and the survivor count [11] was 2 of 4.

In the case of CC(CCN1CCOCC1)(CN=C(N)N)c1cccc2ccccc12 (centres undefined), the survivor count [8] is reported as 3 of 3, the survivor count (dose: 100.0 mg/kg/injection, schedule: Q01DX009 (ip), vehicle: saline) is reported as 3 of 6 and the survivor count [9] is reported as 0 of 3. For the same molecule, the survivor count (dose: 200.0 mg/kg/injection, schedule: Q01DX009 (ip), vehicle: saline) was 0 of 6 and the survivor count (dose: 400.0 mg/kg/injection, schedule: Q01DX009 (ip), vehicle: saline) was 0 of 6.

For CCC(=O)OC1(c2ccccc2)CCN(CCCC(=O)c2ccccc2)CC1, the survivor count (dose: 80.0 mg/kg/injection, schedule: Q04DX003 (ip), vehicle: Klucel (hydroxypropylcellulose) (HPC)) was 2 of 6.

In the case of CC1CC(=O)C=C(c2ccccc2)O1 (centres undefined), the survivor count (dose: 300.0 mg/kg/injection, schedule: Q01DX009 (ip), vehicle: Klucel (hydroxypropylcellulose) (HPC)) is reported as 2 of 6.

With CCCCOC(=O)/C(=C\c1cccc(OC)c1)NC(=O)c1ccccc1 the survivor count (dose: 100.0 mg/kg/injection, schedule: Q01DX009 (ip), vehicle: other) was 6 of 6.

With CC1CCCNC1C (centres undefined) the survivor count [12] was 0 of 6 and the survivor count [13] was 0 of 6.

For C[N+](C)(C)CC1(COC(=O)C(O)(c2ccccc2)c2ccccc2)CCC1, the survivor count (dose: 100.0 mg/kg/injection, schedule: Q01DX001 (ip), vehicle: Klucel (hydroxypropylcellulose) (HPC)) was 0 of 6, the survivor count (dose: 200.0 mg/kg/injection, schedule: Q01DX001 (ip), vehicle: Klucel (hydroxypropylcellulose) (HPC)) was 0 of 6 and the survivor count (dose: 400.0 mg/kg/injection, schedule: Q01DX001 (ip), vehicle: Klucel (hydroxypropylcellulose) (HPC)) was 0 of 6.

For O=C(O)CSCc1ccccc1, the survivor count [12] was 5 of 6 and the survivor count [13] was 5 of 6.

For CC1CCC2(O)C3(C)CC4(O)OC2(C1O)C1(O)C3(O)C(OC(=O)c2ccc[nH]2)C(O)(C(C)C)C41C (centres undefined), the survivor count (dose: 0.5 mg/kg/injection, schedule: Q01DX001 (ip), vehicle: carboxymethylcellulose (CMC)) was 0 of 6, the survivor count (dose: 1.0 mg/kg/injection, schedule: Q01DX001 (ip), vehicle: carboxymethylcellulose (CMC)) was 0 of 6 and the survivor count (dose: 15.0 mg/kg/injection, schedule: Q01DX001 (ip), vehicle: carboxymethylcellulose (CMC)) was 0 of 6. For the same molecule, the survivor count (dose: 30.0 mg/kg/injection, schedule: Q01DX001 (ip), vehicle: carboxymethylcellulose (CMC)) was 0 of 6, the survivor count (dose: 60.0 mg/kg/injection, schedule: Q01DX001 (ip), vehicle: carboxymethylcellulose (CMC)) was 0 of 6 and the survivor count (dose: 75.0 mg/kg/injection, schedule: Q01DX001 (ip), vehicle: carboxymethylcellulose (CMC)) was 0 of 6. The survivor count (dose: 150.0 mg/kg/injection, schedule: Q01DX001 (ip), vehicle: carboxymethylcellulose (CMC)) was 0 of 6 and the survivor count (dose: 300.0 mg/kg/injection, schedule: Q01DX001 (ip), vehicle: carboxymethylcellulose (CMC)) was 0 of 6.

With NC1=NC(c2ccccc2)N(c2ccccc2Cl)C(N)=N1 (centres undefined) the survivor count (dose: 300.0 mg/kg/injection, schedule: Q01DX001 (ip), vehicle: Klucel (hydroxypropylcellulose) (HPC)) was 0 of 6.

In the case of CC1(C)N=C(N)N=C(N)N1c1cccc(CCCCc2cccc(N)c2)c1, the survivor count [1] is reported as 2 of 4, the survivor count [2] is reported as 0 of 4 and the survivor count [3] is reported as 0 of 4. For the same molecule, the survivor count [4] was 0 of 4 and the survivor count [5] was 0 of 4.

With OCC#CC(O)c1ccccc1 (centres undefined) the survivor count (dose: 25.0 mg/kg/injection, schedule: Q04DX003 (ip), vehicle: acetone) was 6 of 6, the survivor count [3] was 2 of 6 and the survivor count (dose: 170.0 mg/kg/injection, schedule: Q01DX009 (ip), vehicle: saline) was 1 of 6. The survivor count [4] was 2 of 6 and the survivor count [5] was 0 of 6.

With CCNC(=S)N(CC)CC the survivor count [7] was 0 of 6.

In the case of CN(C)N=Nc1c(O)ccc2c1CCC1C2CCC2(C)C(=O)CCC12 (centres undefined), the survivor count (dose: 50.0 mg/kg/injection, schedule: Q01DX009 (ip), vehicle: Klucel (hydroxypropylcellulose) (HPC)) is reported as 6 of 6, the survivor count (dose: 100.0 mg/kg/injection, schedule: Q01DX009 (ip), vehicle: Klucel (hydroxypropylcellulose) (HPC)) is reported as 6 of 6 and the survivor count [10] is reported as 5 of 6.

O=C(/C=C/c1ccccc1)N/N=C/c1cccs1 was tested, and the survivor count (dose: 400.0 mg/kg/injection, schedule: Q01DX009 (ip), vehicle: Klucel (hydroxypropylcellulose) (HPC)) was 6 of 6.

For CN(C)[C@@H]1C(=O)C(C(=O)NCNc2nc(=S)c3[nH]cnc3[nH]2)=C(O)[C@@]2(O)C(=O)C3=C(O)c4c(O)cccc4[C@@](C)(O)[C@H]3C[C@@H]12, the T/C (dose: 25.0 mg/kg/injection, schedule: Q01DX Z (ip), vehicle: carboxymethylcellulose (CMC)) was 142 % of control [5 of 6 alive] and the T/C (dose: 50.0 mg/kg/injection, schedule: Q01DX Z (ip), vehicle: carboxymethylcellulose (CMC)) was 134 % of control.

CCOP(=S)(S)OCC.[Ni] was tested, and the survivor count [5] was 1 of 4.
